Measurements reported in PMC7140707.

T1: His6-Gis1 (yeast (S. cerevisiae)) (UniProt Q03833)
T1 sequence: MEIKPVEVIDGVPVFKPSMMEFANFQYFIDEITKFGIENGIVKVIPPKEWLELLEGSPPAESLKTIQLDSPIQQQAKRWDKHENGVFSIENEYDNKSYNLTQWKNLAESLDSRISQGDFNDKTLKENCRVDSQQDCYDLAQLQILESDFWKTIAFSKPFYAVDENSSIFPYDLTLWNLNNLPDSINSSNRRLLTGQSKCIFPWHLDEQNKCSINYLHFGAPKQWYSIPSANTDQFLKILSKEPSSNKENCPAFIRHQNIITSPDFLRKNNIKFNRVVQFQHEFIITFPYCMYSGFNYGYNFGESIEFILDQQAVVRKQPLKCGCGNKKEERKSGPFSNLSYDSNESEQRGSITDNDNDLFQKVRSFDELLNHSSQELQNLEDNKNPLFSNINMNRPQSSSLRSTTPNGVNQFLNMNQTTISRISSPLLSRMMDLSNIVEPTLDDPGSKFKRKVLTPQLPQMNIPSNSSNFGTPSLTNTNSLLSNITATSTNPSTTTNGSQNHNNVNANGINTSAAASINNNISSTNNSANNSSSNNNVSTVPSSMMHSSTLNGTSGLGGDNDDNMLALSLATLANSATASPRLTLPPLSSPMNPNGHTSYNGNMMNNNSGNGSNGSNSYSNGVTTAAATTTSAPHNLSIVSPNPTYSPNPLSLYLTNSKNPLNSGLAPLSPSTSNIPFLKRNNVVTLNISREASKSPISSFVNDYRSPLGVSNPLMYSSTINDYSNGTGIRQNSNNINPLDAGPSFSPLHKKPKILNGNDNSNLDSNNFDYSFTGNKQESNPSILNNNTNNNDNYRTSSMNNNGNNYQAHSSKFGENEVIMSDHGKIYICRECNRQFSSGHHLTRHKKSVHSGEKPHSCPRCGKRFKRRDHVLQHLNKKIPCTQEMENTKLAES


biological target: T1, His6-Gis1 (yeast (S. cerevisiae)); assay: affinity purification with mass spectrometry; His6-Gis1 pre-bound to a Ni Sepharose 6 Fast Flow column; crude yeast extract (Δgis1 cells grown in air or under hypoxia, Δgis1Δhem1 cells at intermediate or high ALA) loaded, 4 °C, 2 h; eluted complexes separated by SDS-PAGE, bands excised, MS; only the target purified

Binder | binding
NPA3 (protein, UniProt P47122 1-385) MSLSTIICIGMAGSGKTTFMQRLNSHLRAEKTPPYVINLDPAVLRVPYGANIDIRDSIKYKKVMENYQLGPNGAIVTSLNLFSTKIDQVIRLVEQKKDKFQNCIIDTPGQIECFVWSASGAIITESFASSFPTVIAYIVDTPRNSSPTTFMSNMLYACSILYKTKLPMIVVFNKTDVCKADFAKEWMTDFESFQAAIKEDQDLNGDNGLGSGYMSSLVNSMSLMLEEFYSQLDVVGVSSFTGDGFDEFMQCVDKKVDEYDQYYKQEREKALNLKKKKEEMRKQKSLNGLMKDLGLNEKSSAAASDNDSIDAISDLEEDANDGLVDRDEDEGVEREYTFPGEERTKGEVNENSAPDLQRRYQEAMQQVGKTASSETAENIAKYIRN | binds
OSM1 (protein, UniProt P21375 33-501) MKQPVVVIGSGLAGLTTSNRLISKYRIPVVLLDKAASIGGNSIKASSGINGAHTDTQQNLKVMDTPELFLKDTLHSAKGRGVPSLMDKLTKESKSAIRWLQTEFDLKLDLLAQLGGHSVPRTHRSSGKLPPGFEIVQALSKKLKDISSKDSNLVQIMLNSEVVDIELDNQGHVTGVVYMDENGNRKIMKSHHVVFCSGGFGYSKEMLKEYSPNLIHLPTTNGKQTTGDGQKILSKLGAELIDMDQVQVHPTGFIDPNDRENNWKFLAAEALRGLGGILLHPTTGRRFTNELSTRDTVTMEIQSKCPKNDNRALLVMSDKVYENYTNNINFYMSKNLIKKVSINDLIRQYDLQTTASELVTELKSYSDVNTKDTFDRPLIINAFDKDISTESTVYVGEVTPVVHFTMGGVKINEKSQVIKKNSESVLSNGIFAAGEVSGGVHGANRLGGSSLLECVVFGKTAADNIAKLY | binds
PHB2 (protein, UniProt P50085 1-310) MNRSPGEFQRYAKAFQKQLSKVQQTGGRGQVPSPRGAFAGLGGLLLLGGGALFINNALFNVDGGHRAIVYSRIHGVSSRIFNEGTHFIFPWLDTPIIYDVRAKPRNVASLTGTKDLQMVNITCRVLSRPDVVQLPTIYRTLGQDYDERVLPSIVNEVLKAVVAQFNASQLITQREKVSRLIRENLVRRASKFNILLDDVSITYMTFSPEFTNAVEAKQIAQQDAQRAAFVVDKARQEKQGMVVRAQGEAKSAELIGEAIKKSRDYVELKRLDTARDIAKILASSPNRVILDNEALLLNTVVDARIDGRGK | binds
PUB1 (protein, UniProt P32588 1-453) MSENNEEQHQQQQQQQPVAVETPSAVEAPASADPSSEQSVAVEGNSEQAEDNQGENDPSVVPANAITGGRETSDRVLYVGNLDKAITEDILKQYFQVGGPIANIKIMIDKNNKNVNYAFVEYHQSHDANIALQTLNGKQIENNIVKINWAFQSQQSSSDDTFNLFVGDLNVNVDDETLRNAFKDFPSYLSGHVMWDMQTGSSRGYGFVSFTSQDDAQNAMDSMQGQDLNGRPLRINWAAKRDNNNNNNYQQRRNYGNNNRGGFRQYNSNNNNNMNMGMNMNMNMNMNNSRGMPPSSMGMPIGAMPLPSQGQPQQSQTIGLPPQVNPQAVDHIIRSAPPRVTTAYIGNIPHFATEADLIPLFQNFGFILDFKHYPEKGCCFIKYDTHEQAAVCIVALANFPFQGRNLRTGWGKERSNFMPQQQQQGGQPLIMNDQQQPVMSEQQQQQQQQQQQQ | binds
RNH1 (protein, UniProt Q04740 1-348) MARQGNFYAVRKGRETGIYNTWNECKNQVDGYGGAIYKKFNSYEQAKSFLGQPNTTSNYGSSTHAGGQVSKPHTTQKRVHRRNRPLHYSSLTSSSACSSLSSANTNTFYSVKSNVPNIESKIFNNWKDCQAYVKHKRGITFKKFEDQLAAENFISGMSAHDYKLMNISKESFESKYKLSSNTMYNKSMNVYCDGSSFGNGTSSSRAGYGAYFEGAPEENISEPLLSGAQTNNRAEIEAVSEALKKIWEKLTNEKEKVNYQIKTDSEYVTKLLNDRYMTYDNKKLEGLPNSDLIVPLVQRFVKVKKYYELNKECFKNNGKFQIEWVKGHDGDPGNEMADFLAKKGASRR | binds
RPC40 (protein, UniProt P07703 1-335) MSNIVGIEYNRVTNTTSTDFPGFSKDAENEWNVEKFKKDFEVNISSLDAREANFDLINIDTSIANAFRRIMISEVPSVAAEYVYFFNNTSVIQDEVLAHRIGLVPLKVDPDMLTWVDSNLPDDEKFTDENTIVLSLNVKCTRNPDAPKGSTDPKELYNNAHVYARDLKFEPQGRQSTTFADCPVVPADPDILLAKLRPGQEISLKAHCILGIGGDHAKFSPVSTASYRLLPQINILQPIKGESARRFQKCFPPGVIGIDEGSDEAYVKDARKDTVSREVLRYEEFADKVKLGRVRNHFIFNVESAGAMTPEEIFFKSVRILKNKAEYLKNCPITQ | binds
RRP3 (protein, UniProt P38712 1-501) MSKIVKRKEKKANDELTSLAEKIRAKALENQKKLIEAEKEGGSESDSEEDATAEKKKVLKSKSKSTVSTQNENTNEDESFESFSELNLVPELIQACKNLNYSKPTPIQSKAIPPALEGHDIIGLAQTGSGKTAAFAIPILNRLWHDQEPYYACILAPTRELAQQIKETFDSLGSLMGVRSTCIVGGMNMMDQARDLMRKPHIIIATPGRLMDHLENTKGFSLRKLKFLVMDEADRLLDMEFGPVLDRILKIIPTQERTTYLFSATMTSKIDKLQRASLTNPVKCAVSNKYQTVDTLVQTLMVVPGGLKNTYLIYLLNEFIGKTMIIFTRTKANAERLSGLCNLLEFSATALHGDLNQNQRMGSLDLFKAGKRSILVATDVAARGLDIPSVDIVVNYDIPVDSKSYIHRVGRTARAGRSGKSISLVSQYDLELILRIEEVLGKKLPKESVDKNIILTLRDSVDKANGEVVMEMNRRNKEKIARGKGRRGRMMTRENMDMGER | binds
RSA1 (protein, UniProt Q08932 1-381) MNYNNFENSKGDGHSRLPKPTYSGTLSDGYDESKIKRQKTDSAFNAAYSPHMYPNSPYYEGSWNTGYTPQLHHVAPHNQYFHPIQPSTQYNYTSPPNYTENYIPPVHQNISYAPALNLQKWPSSYCENTQALKNDKDYQTSISYEDVAIPTVKEIQLIEKNRGKDTFMNEISPVPSSKDQASAEPTEIPRKDPELANSNAEDDHNNLGLEDDDRDEQLESEGLGKVVLVPGTSIALITDEDVKKWREERKKMWLLKISNNKQKHMQEMGIKEDELKSQPSIFKESRKEKQFIQSIQNQVQRGNPKIDLNLKLIQREFANENSQLLDFIRELGDVGLLEYELSQQEKDVLFGSSEDNNKNHYKPNYKNRKPNLSRANFTRNK | binds

Results are given in words; binding and its absence hold for the method and conditions named. In cells and extracts the contact can be indirect. A yes stands for co-enrichment or nearness to the bait. Other partners may have been found. Where a sequence is shown, tags or fusion partners need not be part of it.
